Laboratory results as given in article PMC5660149, “Oligomerization and ATP stimulate condensin-mediated DNA compaction” (Scientific Reports, 2017).
No constants are given. Whether binding was seen depends on the method and setting.

Sequences of proteins named here, by UniProt entry; tags and fusion partners are left off. A change or cut given only in a name is not applied to a line headed by its entry.
UniProt P38989: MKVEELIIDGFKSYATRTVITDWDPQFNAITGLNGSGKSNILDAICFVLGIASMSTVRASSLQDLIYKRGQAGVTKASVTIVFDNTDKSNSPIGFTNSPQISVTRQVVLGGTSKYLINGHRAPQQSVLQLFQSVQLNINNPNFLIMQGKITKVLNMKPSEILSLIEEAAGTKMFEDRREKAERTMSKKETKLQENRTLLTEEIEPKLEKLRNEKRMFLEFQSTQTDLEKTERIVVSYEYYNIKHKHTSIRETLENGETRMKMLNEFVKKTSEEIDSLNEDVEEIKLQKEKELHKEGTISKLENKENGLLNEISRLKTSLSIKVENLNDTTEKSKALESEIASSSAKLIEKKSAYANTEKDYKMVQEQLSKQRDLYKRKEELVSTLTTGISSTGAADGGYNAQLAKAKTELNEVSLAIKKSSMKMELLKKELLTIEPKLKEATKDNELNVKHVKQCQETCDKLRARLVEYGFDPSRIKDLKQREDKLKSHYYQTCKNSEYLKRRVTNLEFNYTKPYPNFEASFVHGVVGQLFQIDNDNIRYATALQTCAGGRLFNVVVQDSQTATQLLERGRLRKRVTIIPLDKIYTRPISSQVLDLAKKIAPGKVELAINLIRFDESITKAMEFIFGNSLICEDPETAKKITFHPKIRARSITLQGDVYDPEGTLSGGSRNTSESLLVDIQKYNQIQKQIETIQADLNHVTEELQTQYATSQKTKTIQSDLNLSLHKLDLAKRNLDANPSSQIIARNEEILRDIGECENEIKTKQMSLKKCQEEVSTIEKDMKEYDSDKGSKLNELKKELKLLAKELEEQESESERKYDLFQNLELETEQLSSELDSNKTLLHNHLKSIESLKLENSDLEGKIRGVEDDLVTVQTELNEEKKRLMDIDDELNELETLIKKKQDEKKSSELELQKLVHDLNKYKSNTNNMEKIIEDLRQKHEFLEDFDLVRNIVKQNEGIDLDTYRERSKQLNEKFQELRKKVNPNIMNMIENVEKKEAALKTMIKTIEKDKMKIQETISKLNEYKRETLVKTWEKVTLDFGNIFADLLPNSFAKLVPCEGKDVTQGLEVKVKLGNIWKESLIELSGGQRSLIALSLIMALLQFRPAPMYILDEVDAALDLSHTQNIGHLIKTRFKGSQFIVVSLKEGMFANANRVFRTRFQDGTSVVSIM
UniProt Q12267: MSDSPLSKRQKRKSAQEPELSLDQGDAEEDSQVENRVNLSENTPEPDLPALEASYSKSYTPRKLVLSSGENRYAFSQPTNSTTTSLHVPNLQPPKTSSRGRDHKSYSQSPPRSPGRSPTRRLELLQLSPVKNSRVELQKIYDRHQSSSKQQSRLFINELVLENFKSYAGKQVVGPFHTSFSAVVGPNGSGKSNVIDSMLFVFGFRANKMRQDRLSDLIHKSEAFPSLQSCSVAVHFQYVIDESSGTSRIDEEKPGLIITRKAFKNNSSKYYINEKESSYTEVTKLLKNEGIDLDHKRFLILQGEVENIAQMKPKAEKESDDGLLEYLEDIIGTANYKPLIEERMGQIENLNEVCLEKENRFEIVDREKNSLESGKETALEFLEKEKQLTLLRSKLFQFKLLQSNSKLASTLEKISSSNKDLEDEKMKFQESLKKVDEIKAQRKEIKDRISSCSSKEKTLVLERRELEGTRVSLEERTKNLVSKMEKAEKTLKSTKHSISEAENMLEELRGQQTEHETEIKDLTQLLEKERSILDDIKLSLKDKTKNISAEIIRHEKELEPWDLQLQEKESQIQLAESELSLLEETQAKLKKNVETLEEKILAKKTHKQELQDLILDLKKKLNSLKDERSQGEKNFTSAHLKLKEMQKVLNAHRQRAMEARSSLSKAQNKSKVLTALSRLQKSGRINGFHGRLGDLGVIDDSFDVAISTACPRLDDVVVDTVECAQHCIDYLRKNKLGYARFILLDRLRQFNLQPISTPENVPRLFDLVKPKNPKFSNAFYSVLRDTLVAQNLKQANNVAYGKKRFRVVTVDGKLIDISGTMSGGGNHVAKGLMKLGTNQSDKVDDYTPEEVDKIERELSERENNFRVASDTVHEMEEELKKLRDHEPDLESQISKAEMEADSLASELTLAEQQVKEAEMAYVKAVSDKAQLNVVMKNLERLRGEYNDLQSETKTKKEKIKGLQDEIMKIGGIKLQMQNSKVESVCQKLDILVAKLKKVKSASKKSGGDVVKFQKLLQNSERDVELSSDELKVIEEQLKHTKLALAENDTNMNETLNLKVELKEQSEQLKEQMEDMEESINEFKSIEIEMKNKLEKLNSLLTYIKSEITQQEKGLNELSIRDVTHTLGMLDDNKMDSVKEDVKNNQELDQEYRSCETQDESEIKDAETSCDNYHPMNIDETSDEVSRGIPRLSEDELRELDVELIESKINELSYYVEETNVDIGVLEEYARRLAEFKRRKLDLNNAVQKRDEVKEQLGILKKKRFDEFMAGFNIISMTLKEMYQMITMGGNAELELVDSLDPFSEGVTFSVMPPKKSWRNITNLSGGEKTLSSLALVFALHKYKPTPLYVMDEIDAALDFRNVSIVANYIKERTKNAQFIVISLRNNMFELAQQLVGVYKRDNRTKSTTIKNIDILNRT
UniProt P38170: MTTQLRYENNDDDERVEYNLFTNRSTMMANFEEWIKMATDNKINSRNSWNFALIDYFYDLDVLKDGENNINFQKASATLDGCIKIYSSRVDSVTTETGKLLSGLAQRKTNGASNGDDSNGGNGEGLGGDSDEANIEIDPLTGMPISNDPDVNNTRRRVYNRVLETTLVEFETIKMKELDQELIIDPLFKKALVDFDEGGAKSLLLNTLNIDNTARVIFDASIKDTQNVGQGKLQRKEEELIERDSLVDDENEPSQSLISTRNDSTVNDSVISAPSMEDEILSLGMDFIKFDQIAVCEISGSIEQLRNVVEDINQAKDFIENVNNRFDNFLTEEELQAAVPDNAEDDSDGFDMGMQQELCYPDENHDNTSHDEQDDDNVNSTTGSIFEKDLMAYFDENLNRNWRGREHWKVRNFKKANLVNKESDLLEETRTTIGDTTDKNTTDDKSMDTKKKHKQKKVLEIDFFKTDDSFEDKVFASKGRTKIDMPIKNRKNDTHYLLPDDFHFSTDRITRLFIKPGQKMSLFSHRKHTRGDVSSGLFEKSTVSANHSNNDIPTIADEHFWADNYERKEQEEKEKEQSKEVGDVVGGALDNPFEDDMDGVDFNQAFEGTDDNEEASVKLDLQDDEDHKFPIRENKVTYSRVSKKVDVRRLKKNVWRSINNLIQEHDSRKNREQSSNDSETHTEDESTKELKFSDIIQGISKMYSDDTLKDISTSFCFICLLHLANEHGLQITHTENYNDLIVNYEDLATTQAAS
UniProt Q06680: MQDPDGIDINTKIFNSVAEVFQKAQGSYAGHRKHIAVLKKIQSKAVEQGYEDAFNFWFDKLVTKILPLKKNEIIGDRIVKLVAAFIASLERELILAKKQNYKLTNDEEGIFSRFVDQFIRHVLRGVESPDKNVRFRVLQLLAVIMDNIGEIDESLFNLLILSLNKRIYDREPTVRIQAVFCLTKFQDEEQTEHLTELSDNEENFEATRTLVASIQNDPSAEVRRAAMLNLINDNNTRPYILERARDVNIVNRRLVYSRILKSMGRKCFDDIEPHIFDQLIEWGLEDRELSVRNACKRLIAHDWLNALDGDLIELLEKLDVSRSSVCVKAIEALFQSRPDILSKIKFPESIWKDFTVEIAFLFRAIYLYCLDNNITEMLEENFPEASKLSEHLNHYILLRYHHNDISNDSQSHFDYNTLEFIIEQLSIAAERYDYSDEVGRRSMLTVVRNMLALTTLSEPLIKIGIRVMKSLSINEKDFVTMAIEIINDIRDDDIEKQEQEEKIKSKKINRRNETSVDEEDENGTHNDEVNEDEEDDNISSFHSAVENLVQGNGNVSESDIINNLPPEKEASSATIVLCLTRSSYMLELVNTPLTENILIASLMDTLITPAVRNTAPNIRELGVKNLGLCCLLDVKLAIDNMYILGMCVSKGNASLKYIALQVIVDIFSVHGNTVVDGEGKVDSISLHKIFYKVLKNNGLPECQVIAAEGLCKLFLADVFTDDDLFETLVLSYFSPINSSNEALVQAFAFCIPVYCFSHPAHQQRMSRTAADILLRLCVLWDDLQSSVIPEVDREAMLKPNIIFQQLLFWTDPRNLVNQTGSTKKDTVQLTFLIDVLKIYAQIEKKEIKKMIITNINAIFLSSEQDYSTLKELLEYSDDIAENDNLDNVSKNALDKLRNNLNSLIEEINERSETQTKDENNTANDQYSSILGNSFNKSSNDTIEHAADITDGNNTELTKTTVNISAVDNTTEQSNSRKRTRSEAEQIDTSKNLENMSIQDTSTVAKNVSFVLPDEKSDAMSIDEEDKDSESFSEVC
UniProt Q06156: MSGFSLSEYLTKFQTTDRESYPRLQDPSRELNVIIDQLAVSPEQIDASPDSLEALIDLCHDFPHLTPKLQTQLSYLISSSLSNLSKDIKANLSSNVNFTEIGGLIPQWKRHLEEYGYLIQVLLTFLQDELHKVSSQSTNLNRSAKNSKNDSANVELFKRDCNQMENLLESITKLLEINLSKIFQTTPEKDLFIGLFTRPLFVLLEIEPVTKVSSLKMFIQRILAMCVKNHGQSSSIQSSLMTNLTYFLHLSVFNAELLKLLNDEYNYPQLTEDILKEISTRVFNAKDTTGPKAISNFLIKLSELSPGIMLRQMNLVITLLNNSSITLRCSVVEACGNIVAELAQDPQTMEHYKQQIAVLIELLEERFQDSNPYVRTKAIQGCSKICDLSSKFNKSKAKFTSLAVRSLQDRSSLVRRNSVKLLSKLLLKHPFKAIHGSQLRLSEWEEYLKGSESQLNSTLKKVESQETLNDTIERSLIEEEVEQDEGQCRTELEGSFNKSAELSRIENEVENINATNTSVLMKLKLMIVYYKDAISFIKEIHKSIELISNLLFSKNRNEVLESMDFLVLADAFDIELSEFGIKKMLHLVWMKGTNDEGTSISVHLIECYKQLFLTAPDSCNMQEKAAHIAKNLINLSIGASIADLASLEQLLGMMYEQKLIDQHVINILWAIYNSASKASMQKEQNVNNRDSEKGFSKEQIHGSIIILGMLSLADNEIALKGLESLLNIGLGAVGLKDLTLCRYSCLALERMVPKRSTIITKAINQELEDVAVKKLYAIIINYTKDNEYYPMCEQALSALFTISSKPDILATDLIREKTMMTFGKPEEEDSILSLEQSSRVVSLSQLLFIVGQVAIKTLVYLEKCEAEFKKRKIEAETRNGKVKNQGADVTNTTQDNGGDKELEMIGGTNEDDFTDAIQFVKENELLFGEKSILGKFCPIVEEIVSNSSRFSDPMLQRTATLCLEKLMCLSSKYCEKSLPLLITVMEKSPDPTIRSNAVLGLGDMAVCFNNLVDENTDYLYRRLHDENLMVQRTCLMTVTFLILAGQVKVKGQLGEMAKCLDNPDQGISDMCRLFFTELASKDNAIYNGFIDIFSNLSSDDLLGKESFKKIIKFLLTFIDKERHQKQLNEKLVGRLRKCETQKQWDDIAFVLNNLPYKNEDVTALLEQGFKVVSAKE

Molecular target: budding yeast condensin holoenzyme (heteropentamer of Smc2, Smc4, Brn1, Ycg1 and Ycs4) (budding yeast) (UniProt P38989+Q12267+P38170+Q06680+Q06156)
Experiment: condition: only the pooled monomeric SEC fractions, kept at 4 °C for 2 hours and re-run; SEC; terminal fractions of the monomeric peak pooled, concentrated, kept at 4 °C for 2 hours and re-run on the same Superose 6 column; in a further run monomer incubated with or without 1 mM ATP at 4 °C for 16 hours (no significant effect of ATP); both purified

“budding yeast condensin holoenzyme (heteropentamer of Smc2, Smc4, Brn1, Ycg1 and Ycs4) (from UniProt P38989 1-1170; Q12267 1-1418; P38170 1-754; Q06680 1-1035; Q06156 1-1176) (complex)” was tested. Which binding did it give?
Its binding is “no binding”.
